These are yes or no findings as the source states them, for the method shown. Binding seen in cells or lysates may run through a third protein. These calls come from enrichment with a bait or labelling near it, and not all partners need be listed. Tags and fused reporters may be left off the sequences shown.
Molecular target: T1, Ste4-GFP (endogenous) (S. pombe) (UniProt P36622)
T1 sequence: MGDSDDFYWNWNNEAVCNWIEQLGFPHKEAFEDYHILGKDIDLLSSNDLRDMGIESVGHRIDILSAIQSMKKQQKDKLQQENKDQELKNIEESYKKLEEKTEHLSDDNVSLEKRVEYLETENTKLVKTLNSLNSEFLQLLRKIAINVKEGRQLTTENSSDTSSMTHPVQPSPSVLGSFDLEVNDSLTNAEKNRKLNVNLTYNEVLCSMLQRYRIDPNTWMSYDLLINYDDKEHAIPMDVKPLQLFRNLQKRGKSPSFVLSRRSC
Test: affinity purification with mass spectrometry; endogenous Ste4-GFP, or GFP as negative control, immunoprecipitated from mating cell lysates; bead eluate analysed by mass spectrometry; three co-immunoprecipitations

B1: MAP3K^Byr2 (endogenous) (protein, UniProt P28829 1-659)
chain: MEYYTSKEVAEWLKSIGLEKYIEQFSQNNIEGRHLNHLTLPLLKDLGIENTAKGKQFLKQRDYLREFPRPCILRFIACNGQTRAVQSRGDYQKTLAIALKKFSLEDASKFIVCVSQSSRIKLITEEEFKQICFNSSSPERDRLIIVPKEKPCPSFEDLRRSWEIELAQPAALSSQSSLSPKLSSVLPTSTQKRSVRSNNAKPFESYQRPPSELINSRISDFFPDHQPKLLEKTISNSLRRNLSIRTSQGHNLGNFGQEILPRSSRRARPSELVCPLSSLRISVAEDVNRLPRIDRGFDPPLTVSSTQRISRPPSLQKSITMVGVEPLYQSNGNEKSSKYNVFSESAHGNHQVLSFSPGSSPSFIEQPSPISPTSTTSEDTNTLEEDTDDQSIKWIRGALIGSGSFGQVYLGMNASSGELMAVKQVILDSVSESKDRHAKLLDALAGEIALLQELSHEHIVQYLGSNLNSDHLNIFLEYVPGGSVAGLLTMYGSFEETLVKNFIKQTLKGLEYLHSRGIVHRDIKGANILVDNKGKIKISDFGISKKLELNSTSTKTGGARPSFQGSSFWMAPEVVKQTMHTEKTDIWSLGCLVIEMLTSKHPYPNCDQMQAIFRIGENILPEFPSNISSSAIDFLEKTFAIDCNLRPTASELLSHPFVS
binding: binds

— publication PMC13144348
